Experimental data: the supplement of paper PMC9549374
This is one part of the list. Rule as the data show it: active = 2-fold of DMSO or more and inactive = the rest. Single values of this set are uncertain. Some low values are a fixed figure set by the source, not a measured ratio.

tested on: CM7/1-hgem mouse ES cell-derived cardiomyocytes; assay: maximal number of mAG-hGem(1/110)-positive cardiomyocytes over 96 h, fold-change vs DMSO; higher = more cardiomyocyte cell cycle activity; conditions: 1 µM; 96 (max over 12 h time points) h

Structure (SMILES) | maximal number
COc1cc2c(cc1OC)[C@@]13CCN4CC5=CCO[C@H]6CC(=O)N2[C@H]1[C@H]6[C@H]5C[C@H]43 | inactive: 0.5
Cc1cc2c(C(C)C)c(O)c(O)c(C=O)c2c(O)c1-c1c(C)cc2c(C(C)C)c(O)c(O)c(C=O)c2c1O | inactive: 0
CC(=O)O[C@@H]1C[C@H]2C(C)(C)C(=O)C=C[C@]2(C)[C@H]2CC[C@]3(C)C(=CC(=O)O[C@H]3c3ccoc3)[C@@]21C | inactive: 0
CCC(C)C(=O)OC1CC2(C)C(c3ccoc3)OC(=O)CC23OC2(C)OC34C(OC(=O)C(C)C)C3(O)C(OC(=O)C5(C)OC5C)C5(C)CC3(O)C(C)(C5CC(=O)OC)C14O2 (stereo not given) | inactive: 0
CC1CC(Cl)CCC1C(=O)OC(C)(C)C (stereo not given) | inactive: 1
CO[C@H]1[C@H](O)[C@H](O[C@H]2CC[C@@]3(C=O)[C@H](CC[C@@H]4[C@@H]3CC[C@]3(C)[C@@H](C5=CC(=O)OC5)CC[C@]43O)C2)O[C@@H](C)[C@@H]1O | active: 4
CN1[C@H]2C[C@H](OC(=O)[C@H](CO)c3ccccc3)C[C@@H]1[C@@H](O)C2 | inactive: 1
N#Cc1nn(-c2c(Cl)cc(C(F)(F)F)cc2Cl)c(N)c1[S+]([O-])C(F)(F)F (stereo not given) | inactive: 1
CC[C@@]1(O)C[C@H](O[C@H]2C[C@H](N(C)C)[C@H](O)[C@H](C)O2)c2c(cc3c(c2O)C(=O)c2c(O)ccc(O)c2C3=O)[C@H]1C(=O)OC | inactive: 0
CC(=O)O[C@H]1C[C@@H](OC(C)=O)C(C)(C)C2C[C@@H](OC(C)=O)[C@]3(C)C(CC[C@@]4(C)[C@H](c5ccoc5)C(=O)[C@H]5O[C@]543)[C@]21C (stereo not given in full) | inactive: 1

A section from the list above:
Structure (SMILES) | maximal number
CC(=O)O[C@@H]1C[C@H]2C(C)(C)C(=O)C=C[C@]2(C)[C@H]2CC[C@]3(C)C(=CC(=O)O[C@H]3c3ccoc3)[C@@]21C | inactive: 0
CCC(C)C(=O)OC1CC2(C)C(c3ccoc3)OC(=O)CC23OC2(C)OC34C(OC(=O)C(C)C)C3(O)C(OC(=O)C5(C)OC5C)C5(C)CC3(O)C(C)(C5CC(=O)OC)C14O2 (stereo not given) | inactive: 0
